Assay results published in US20110045974A1, “Substituted Triazinylmethyl Sulfonamides” (BASF SE, priority 2008, published 2011).
Some of these results come from one statement about several compounds together.

Tests used:
Septoria tritici = conditions: wheat seedlings sprayed with 250 ppm, inoculated two days later, assessed after 4 weeks; untreated plants 90% infected
Phakopsora pachyrhizi = assay: Glasshouse trial: protective control of soy bean rust on soy beans caused by Phakopsora pachyrhizi; format: in vivo; conditions: protective: soy bean seedlings sprayed with 250 ppm, inoculated next day, cultivated fourteen days; untreated plants 90% infected

Compound: COc1nc(CNS(=O)(=O)c2ccc(Oc3ccccc3)cc2)nc(OC)n1 [I-46, 4-phenoxy-N-(4,6-dimethoxy-[1,3,5]triazin-2-ylmethyl)-benzenesulfonamide]
- infection (% diseased leaf area) (Septoria tritici): less than or equal to 15%
- infection (% diseased leaf area) (Phakopsora pachyrhizi): less than or equal to 15%
